Source: US20060051764

Chains of the proteins cited; added tags and fusions are not shown. Lines headed by an entry give the natural chain unless they say otherwise; changes in a name come on top. Chains listed by the source or under a name are the forms on record and can include a tag or linker.
UniProt P22415: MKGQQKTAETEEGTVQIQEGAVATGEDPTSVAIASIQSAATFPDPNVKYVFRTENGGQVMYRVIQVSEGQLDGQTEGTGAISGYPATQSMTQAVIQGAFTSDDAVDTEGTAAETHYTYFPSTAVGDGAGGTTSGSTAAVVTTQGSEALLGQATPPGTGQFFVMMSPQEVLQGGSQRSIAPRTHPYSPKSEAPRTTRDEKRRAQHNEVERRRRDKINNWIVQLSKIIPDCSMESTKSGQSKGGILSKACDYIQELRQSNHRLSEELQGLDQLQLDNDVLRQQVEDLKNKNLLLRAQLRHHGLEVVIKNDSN
USF complexes (USF-1/USF-2) in HT29 nuclear extract (Homo sapiens), one chain, as listed by the source, chain 2 of 2: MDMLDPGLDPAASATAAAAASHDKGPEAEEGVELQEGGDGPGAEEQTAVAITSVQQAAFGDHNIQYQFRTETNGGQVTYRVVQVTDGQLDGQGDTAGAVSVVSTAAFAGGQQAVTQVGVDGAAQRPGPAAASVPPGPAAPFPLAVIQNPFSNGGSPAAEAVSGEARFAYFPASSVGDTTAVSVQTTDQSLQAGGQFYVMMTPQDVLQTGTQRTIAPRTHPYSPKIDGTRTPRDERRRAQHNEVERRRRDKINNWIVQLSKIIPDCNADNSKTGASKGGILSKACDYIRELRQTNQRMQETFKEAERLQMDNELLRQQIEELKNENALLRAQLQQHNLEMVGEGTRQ
USF complexes (USF-1/USF-2) in HT29 nuclear extract (Homo sapiens), one chain, as listed by the source, chain 1 of 2: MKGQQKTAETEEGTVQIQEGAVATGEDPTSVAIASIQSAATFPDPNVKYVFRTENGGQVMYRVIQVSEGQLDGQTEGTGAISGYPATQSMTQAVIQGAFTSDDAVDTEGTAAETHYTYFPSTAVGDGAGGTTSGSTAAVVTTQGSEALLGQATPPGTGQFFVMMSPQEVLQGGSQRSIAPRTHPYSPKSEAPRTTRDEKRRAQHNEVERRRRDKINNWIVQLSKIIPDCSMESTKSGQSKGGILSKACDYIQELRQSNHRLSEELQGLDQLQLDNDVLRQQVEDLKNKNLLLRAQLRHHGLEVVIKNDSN

Experiments:
[1] = molecular target: USF-1 unphosphorylated (Homo sapiens) (UniProt P22415); assay: EMSA; details: purified recombinant protein, protein details: N-terminal 6xHis (pProEX-HTb, E. coli)
[2] = tested on: USF complexes (USF-1/USF-2) in HT29 nuclear extract (Homo sapiens); assay: EMSA; details: HT29 nuclear extract 2.5 ug; protein in an extract; label: 32P
[3] = tested on: USF complexes (USF-1/USF-2) in HT29 nuclear extract (Homo sapiens); assay: competition with a labelled probe; details: unlabeled competitor removes two USF bands; protein in an extract; label: 32P when used as probe

Row | Sequence | binding result ([1]; only phosphorylated form binds, label: 32P) | binding result [2] | binding result ([1]; consensus probe, sequence taken from the listed USF-1 specific oligonucleotide, label: 32P when used as probe) | binding result [3]
1 | CCGCGCCACTTGGCCTGCCTCCGTCCCG (double strand) [TS wild-type tandem repeat (R)] | no binding | binds | – | –
2 | CACCCGGTCACGTGGCCTACACC (double strand) [USF-1 consensus oligonucleotide] | – | – | no binding | binds

For some of these results: Negatives hold for the conditions tested. For some of these results: Results from cells or extracts need not show a direct contact.
